Data taken from PMC6166740.
These are yes or no findings as the source states them, for the method shown. Binding seen in cells or lysates may run through a third protein. Some results given as binding are weak or reduced against the parent protein; the word gives no strength. Where a sequence is shown, tags or fusion partners need not be part of it.

Experiments:
[1] = target: T1, TTC21B (UniProt Q7Z4L5); test: co-IP; FLAG-tagged and V5-tagged proteins coexpressed in HEK293T cells (calcium phosphate, 24 h); lysis in 1% Triton X-100, 20 mM Tris pH 7.5, 50 mM NaCl, 50 mM NaF, 15 mM Na4P2O7, 0.1 mM EDTA; anti-FLAG M2 agarose beads 2 h; Western blot with anti-V5 and anti-FLAG
T1 sequence: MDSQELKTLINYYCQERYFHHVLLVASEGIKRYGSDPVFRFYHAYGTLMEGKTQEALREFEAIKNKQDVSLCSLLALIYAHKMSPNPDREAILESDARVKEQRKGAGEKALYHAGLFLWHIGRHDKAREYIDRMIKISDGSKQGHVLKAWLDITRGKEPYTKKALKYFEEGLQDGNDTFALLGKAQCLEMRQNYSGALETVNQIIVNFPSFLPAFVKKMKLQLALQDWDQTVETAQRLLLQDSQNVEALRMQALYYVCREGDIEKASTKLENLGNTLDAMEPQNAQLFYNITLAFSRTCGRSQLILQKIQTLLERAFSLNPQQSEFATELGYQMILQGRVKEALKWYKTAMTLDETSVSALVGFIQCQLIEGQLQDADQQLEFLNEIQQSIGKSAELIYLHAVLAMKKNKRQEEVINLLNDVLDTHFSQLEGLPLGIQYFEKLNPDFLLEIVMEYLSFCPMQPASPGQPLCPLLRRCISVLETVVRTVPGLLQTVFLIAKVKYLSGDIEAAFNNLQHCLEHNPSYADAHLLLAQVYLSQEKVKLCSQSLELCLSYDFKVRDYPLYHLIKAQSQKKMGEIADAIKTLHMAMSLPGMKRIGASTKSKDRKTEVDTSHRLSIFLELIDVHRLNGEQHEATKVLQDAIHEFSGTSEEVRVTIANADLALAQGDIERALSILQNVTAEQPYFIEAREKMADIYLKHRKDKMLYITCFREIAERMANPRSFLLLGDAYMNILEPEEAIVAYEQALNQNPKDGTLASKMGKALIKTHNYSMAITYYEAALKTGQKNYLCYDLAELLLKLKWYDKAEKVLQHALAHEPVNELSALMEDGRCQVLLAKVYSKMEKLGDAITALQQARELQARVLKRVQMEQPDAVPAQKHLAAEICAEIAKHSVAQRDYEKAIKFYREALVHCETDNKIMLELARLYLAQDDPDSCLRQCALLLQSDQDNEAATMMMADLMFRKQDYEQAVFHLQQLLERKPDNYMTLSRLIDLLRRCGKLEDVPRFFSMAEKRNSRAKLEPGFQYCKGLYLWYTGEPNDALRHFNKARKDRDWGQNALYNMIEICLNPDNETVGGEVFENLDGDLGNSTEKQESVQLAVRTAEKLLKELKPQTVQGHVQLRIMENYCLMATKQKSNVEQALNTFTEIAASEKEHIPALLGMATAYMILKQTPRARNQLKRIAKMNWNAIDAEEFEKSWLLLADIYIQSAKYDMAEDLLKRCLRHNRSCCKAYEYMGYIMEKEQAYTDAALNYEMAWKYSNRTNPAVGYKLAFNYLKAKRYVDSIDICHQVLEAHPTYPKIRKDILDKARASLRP

[2] = target: T2, WDR19 (UniProt Q8NEZ3); test: as above
T2 sequence: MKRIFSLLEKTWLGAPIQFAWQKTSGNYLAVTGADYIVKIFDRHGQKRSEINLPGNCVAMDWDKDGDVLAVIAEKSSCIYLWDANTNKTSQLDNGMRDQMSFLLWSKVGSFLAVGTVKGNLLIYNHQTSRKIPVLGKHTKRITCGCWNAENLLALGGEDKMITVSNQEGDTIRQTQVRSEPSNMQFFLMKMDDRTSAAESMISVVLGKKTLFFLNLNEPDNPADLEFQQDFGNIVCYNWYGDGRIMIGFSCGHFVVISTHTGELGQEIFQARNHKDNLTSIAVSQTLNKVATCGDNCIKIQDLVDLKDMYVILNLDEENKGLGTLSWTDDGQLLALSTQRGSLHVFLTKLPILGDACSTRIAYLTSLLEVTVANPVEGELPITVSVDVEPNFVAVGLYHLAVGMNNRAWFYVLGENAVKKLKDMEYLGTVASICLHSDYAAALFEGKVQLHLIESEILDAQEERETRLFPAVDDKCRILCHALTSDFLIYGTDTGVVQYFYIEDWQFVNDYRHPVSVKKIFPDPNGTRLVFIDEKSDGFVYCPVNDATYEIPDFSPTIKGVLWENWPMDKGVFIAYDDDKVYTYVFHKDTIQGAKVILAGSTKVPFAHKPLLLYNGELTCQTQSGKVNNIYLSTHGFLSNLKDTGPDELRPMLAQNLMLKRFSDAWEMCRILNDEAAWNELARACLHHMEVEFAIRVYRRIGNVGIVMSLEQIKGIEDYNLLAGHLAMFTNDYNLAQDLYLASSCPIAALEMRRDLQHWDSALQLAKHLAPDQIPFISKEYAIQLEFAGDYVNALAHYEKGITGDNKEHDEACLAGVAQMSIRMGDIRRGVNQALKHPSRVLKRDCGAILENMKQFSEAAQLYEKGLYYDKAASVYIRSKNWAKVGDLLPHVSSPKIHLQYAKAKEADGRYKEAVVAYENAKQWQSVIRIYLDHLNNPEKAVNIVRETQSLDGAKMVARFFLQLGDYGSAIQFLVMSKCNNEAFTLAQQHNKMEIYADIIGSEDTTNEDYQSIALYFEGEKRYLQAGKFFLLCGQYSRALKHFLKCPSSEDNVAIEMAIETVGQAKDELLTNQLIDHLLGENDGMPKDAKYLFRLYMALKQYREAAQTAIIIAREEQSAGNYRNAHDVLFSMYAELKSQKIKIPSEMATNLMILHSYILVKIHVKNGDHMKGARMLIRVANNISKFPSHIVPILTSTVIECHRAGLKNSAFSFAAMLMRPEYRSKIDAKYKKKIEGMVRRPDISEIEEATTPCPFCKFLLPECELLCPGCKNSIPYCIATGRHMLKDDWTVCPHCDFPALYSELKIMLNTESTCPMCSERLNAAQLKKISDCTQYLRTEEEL

binding [1]: binds
binding [2]: binds
B1: V5-tagged NME3 (enzyme, UniProt Q13232 1-169)
chain: MICLVLTIFANLFPAACTGAHERTFLAVKPDGVQRRLVGEIVRRFERKGFKLVALKLVQASEELLREHYAELRERPFYGRLVKYMASGPVVAMVWQGLDVVRTSRALIGATNPADAPPGTIRGDFCIEVGKNLIHGSDSVESARREIALWFRADELLCWEDSAGHWLYE
